{"sequences": {"note": "The chains behind the UniProt entries cited, without tags or fusion partners. Where a name states a change or a piece, a line headed by the entry shows the natural chain unless it says otherwise.", "UniProt P12956": "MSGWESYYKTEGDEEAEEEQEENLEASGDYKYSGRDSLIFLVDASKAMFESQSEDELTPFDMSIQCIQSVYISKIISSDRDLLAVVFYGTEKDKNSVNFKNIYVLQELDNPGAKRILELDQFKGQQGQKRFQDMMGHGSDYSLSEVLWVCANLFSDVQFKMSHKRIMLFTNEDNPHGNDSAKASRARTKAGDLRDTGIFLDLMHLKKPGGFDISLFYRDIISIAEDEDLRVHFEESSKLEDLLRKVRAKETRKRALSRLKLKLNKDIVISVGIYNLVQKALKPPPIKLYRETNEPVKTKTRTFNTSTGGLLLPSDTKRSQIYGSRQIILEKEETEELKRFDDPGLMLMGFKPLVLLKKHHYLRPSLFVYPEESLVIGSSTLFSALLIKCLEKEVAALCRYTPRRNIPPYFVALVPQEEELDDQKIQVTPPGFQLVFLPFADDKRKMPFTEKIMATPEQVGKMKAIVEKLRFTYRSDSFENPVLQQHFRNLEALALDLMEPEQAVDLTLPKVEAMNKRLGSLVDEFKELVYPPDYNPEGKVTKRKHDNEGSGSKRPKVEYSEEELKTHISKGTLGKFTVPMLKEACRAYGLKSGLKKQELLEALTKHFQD"}, "source": "paper PMC6715699", "molecular_target": "Ku70 (UniProt P12956)", "test": "MST", "conditions": "50 nM labelled DNA, no binding specificity; MST in standard MST buffer (composition and pH not given), premium-treated capillaries, Monolith NT.115; 20 min at room temperature stated for the protein mixes; commercial protein; label: 647-NHS", "note": "Construct, isoform or probe ends are uncertain for at least one entry."}
{"sequence": "TTAGGGTTAGGGTTAGGG (double strand) [TELO (TTAGGG)3]", "values": [{"measurement": "Kd", "value": 2.37, "unit": "µM"}]}
